Results are given in words; binding and its absence hold for the method and conditions named. In cells and extracts the contact can be indirect. Some binding calls cover weakened binding; strength is not graded here.
T1: Astrocyte elevated gene-1 (AEG-1) (human) (UniProt Q86UE4)
T1 sequence: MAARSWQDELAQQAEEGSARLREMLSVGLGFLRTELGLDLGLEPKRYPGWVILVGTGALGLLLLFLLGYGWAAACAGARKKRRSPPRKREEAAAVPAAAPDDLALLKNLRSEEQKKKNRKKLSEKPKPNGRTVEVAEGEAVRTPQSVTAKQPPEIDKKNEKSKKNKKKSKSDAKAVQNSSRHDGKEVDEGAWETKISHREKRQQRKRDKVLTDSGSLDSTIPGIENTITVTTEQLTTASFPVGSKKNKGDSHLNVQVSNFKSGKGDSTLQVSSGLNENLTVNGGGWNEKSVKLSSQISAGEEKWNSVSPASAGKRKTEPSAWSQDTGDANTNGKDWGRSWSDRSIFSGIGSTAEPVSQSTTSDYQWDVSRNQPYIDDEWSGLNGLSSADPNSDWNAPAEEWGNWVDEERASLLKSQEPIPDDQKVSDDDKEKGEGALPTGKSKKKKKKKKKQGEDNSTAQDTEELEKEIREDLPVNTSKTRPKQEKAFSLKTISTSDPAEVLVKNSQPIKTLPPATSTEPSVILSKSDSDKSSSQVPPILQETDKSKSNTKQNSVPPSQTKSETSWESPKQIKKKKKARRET

Sequences of proteins named here, by UniProt entry; tags and fusion partners are left off.
UniProt P49841: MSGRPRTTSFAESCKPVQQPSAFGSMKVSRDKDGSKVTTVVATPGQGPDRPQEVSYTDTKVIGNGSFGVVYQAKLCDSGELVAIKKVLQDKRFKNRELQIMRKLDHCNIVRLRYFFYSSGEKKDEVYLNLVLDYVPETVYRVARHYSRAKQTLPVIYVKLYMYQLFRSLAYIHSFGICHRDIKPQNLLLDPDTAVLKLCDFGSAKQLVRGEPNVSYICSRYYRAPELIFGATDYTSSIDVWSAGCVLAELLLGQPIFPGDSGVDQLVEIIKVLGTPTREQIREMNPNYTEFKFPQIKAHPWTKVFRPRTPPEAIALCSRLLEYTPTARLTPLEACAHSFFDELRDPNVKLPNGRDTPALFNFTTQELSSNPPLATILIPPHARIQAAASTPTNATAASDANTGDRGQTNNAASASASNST


What was measured:
[1] = target: T1, Astrocyte elevated gene-1 (AEG-1) (human); test: co-IP; AEG-1 complexes from lysates of transfected Slu-01 cells, immunoblot for GSK-3β and CKIδ; 4°C, 1 mg total protein, precleared; species-matched immunoglobulin as control
[2] = target: glycogen synthase kinase 3β (GSK-3β) (human (endogenous in Slu-01)) (UniProt P49841); test: co-IP; GSK-3β immunoprecipitated from lysates of Slu-01 cells overexpressing AEG-1, immunoblot; 4°C, 1 mg total protein, precleared; species-matched immunoglobulin as control

Row | binding [1] | binding [2] | Molecule
1 | binds |  | glycogen synthase kinase 3β (GSK-3β) (from UniProt P49841 1-420)
2 |  | binds | Astrocyte elevated gene-1 (AEG-1) (protein, UniProt Q86UE4 1-582) MAARSWQDELAQQAEEGSARLREMLSVGLGFLRTELGLDLGLEPKRYPGWVILVGTGALGLLLLFLLGYGWAAACAGARKKRRSPPRKREEAAAVPAAAPDDLALLKNLRSEEQKKKNRKKLSEKPKPNGRTVEVAEGEAVRTPQSVTAKQPPEIDKKNEKSKKNKKKSKSDAKAVQNSSRHDGKEVDEGAWETKISHREKRQQRKRDKVLTDSGSLDSTIPGIENTITVTTEQLTTASFPVGSKKNKGDSHLNVQVSNFKSGKGDSTLQVSSGLNENLTVNGGGWNEKSVKLSSQISAGEEKWNSVSPASAGKRKTEPSAWSQDTGDANTNGKDWGRSWSDRSIFSGIGSTAEPVSQSTTSDYQWDVSRNQPYIDDEWSGLNGLSSADPNSDWNAPAEEWGNWVDEERASLLKSQEPIPDDQKVSDDDKEKGEGALPTGKSKKKKKKKKKQGEDNSTAQDTEELEKEIREDLPVNTSKTRPKQEKAFSLKTISTSDPAEVLVKNSQPIKTLPPATSTEPSVILSKSDSDKSSSQVPPILQETDKSKSNTKQNSVPPSQTKSETSWESPKQIKKKKKARRET

Reference: PMC4358870
